Data as given in US20250325468A1, “PEPTIDE INHIBITING FORMATION OF SNARE COMPLEX AND USE THEREOF” (MEDYTOX INC., priority 2020, published 2025).
“And” between values parts separate entries of the source, which are not always exact repeats. Equal entries are not always repeated. Part of at least one peptide drawing is inferred or uncertain, most often the ends. Where no end group is shown, it is not given here.

How the values were obtained:
Format in all cases: cell-based, mice
MITF gene = MITF gene activity by real-time PCR; conditions: 48 hours
Experimental: B16-F10 cells purchased from the Korean Cell Line Bank were inoculated into 3 mL of a DMEM medium containing 10% FBS at a concentration of 1×10^5 cells/well in a 6-well plate and cultured in an incubator of 37° C. and 5% CO2 for 24 hours to form a cell monolayer. The medium in a negative control was replaced with a DMEM medium, and the medium in peptide-treated experimental groups and α-MSH experimental groups was replaced with a medium containing 10 μM of each of the peptides and 50 nM of α-MSH, respectively, and then the cells were cultured for 48 hours. Each of the experimental groups was washed twice with PBS, the cells were obtained with trypsin-EDTA and centrifuged at 1500 rpm for 5 minutes to separate the cells. RNA was extracted from the separated cells using Trizol, and each 1,000 ng of cDNA was synthesized using reverse transcriptase. Using 100 ng of each of the synthesized cDNAs, the expression levels of GAPDH and […] were confirmed using real-time PCR. The primers used for the real-time PCR were SEQ ID NOs: 9 and 10. Alternatively, the polynucleotide sets of SEQ ID NOs: 11 and 12 were used.

B16-F10 cells [1] = assay: Melanin amount in cells after C2-P4 treatment; conditions: FIG. 5, 48 hours, 490 nm
B16-F10 cells [2] = assay: Melanin amount in medium after C2-P4 treatment; conditions: FIG. 6, 48 hours, 490 nm

## RRWRRWNRFNRRRCRRRLQQTQAQVDEVVDIM [C2-P4]
MITF gene; FIG. 7 and Table 2, 10 μM
  effect on the expression of the MITF gene: no significant effect
MITF gene; Table 2, three replicates, C2-P4 10 μM, α-MSH 50 nM
  MITF (real-time PCR value): 30.86 and 31.24 and 30.55
B16-F10 cells [1]; 5 μM
  absorbance (melanin level in cells) as compared to the negative control: about 180%
B16-F10 cells [1]; 10 μM
  absorbance (melanin level in cells) as compared to the negative control: ~250%
B16-F10 cells [2]; 5 μM
  absorbance (melanin level in medium) as compared to the negative control: about 107%
B16-F10 cells [2]; 10 μM
  absorbance (melanin level in medium) as compared to the negative control: ~105%
